Laboratory results: PubChem BioAssay AID1259254 (NCATS, 2017)
In all, the deposit lists about 59,000 reagents; shown is an unselected part. About 1,550 of them (2.6%) were called active. 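G2 share is only a proxy for re-replication; each gene was hit by three separate siRNAs, and active genes were retested.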 Raw values vary from plate to plate and are shown uncorrected. Unmarked entries are inactive. The numbers tell different reagents against one gene apart. Reagent sequences are not shown. Not given: the amount of reagent.

Test: 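Genome-wide screen for genes that prevent DNA re-replication in cancer cells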 (primary screen)
System: human HCT116 colorectal cancer cells
Reagents: single siRNA against human genes
Timing: 3 days
Measured: 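Nuclei stained with Hoechst and imaged; cell-cycle phase assigned by DNA content; G2 share scaled per plate, non-targeting siRNA 0%, GMNN siRNA 100%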
Scale: G2 robust z-score and G2 cells, % of GMNN control: higher = more G2 cells, more excess DNA replication; raw share of cells in G2: higher = larger share of cells with G2 DNA content
Rule for the call: 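An siRNA counts as active if its G2 robust z-score lies at least 5 MADs above the screen median; here such calls match roughly 38% of GMNN control or more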

no.	gene symbol	reagent	G2 robust z-score	G2 cells, % of GMNN control	raw share of cells in G2 (%)
1	SHOC1	1	2.96	23.8	12.1
2	SHOC1	2	-0.19	1.63	3.51
3	SHOC1	3	0.529	6.69	4.88
4	TG	1	0.381	5.64	6.83
5	TG	2	4.25	32.9	15.1
6	TG	3	-1.35	-6.51	2.74
7	ZNF823	1	0.434	6.02	4.92
8	ZNF823	2	1.05	10.4	10.6
9	ZNF823	3	-0.161	1.83	4.21
10	PRKAA1	1	-1.12	-4.93	3.98
11	PRKAA1	2	0.456	6.17	7.49
12	PRKAA1	3	0.242	4.67	5.67
13	ORMDL1	1	0.18	4.24	5.79
14	ORMDL1	2	-0.594	-1.21	2.97
15	ORMDL1	3	-0.813	-2.75	1.01
16	RHPN2	1	1.13	10.9	8.73
17	RHPN2	2	2.88	23.2	10.3
18	RHPN2	3	0.246	4.7	4.41
19	CYP26C1	1	-0.475	-0.374	4.81
20	CYP26C1	2	2.01	17.1	13.3
21	CYP26C1	3	-1.12	-4.94	2.48
22	CDKN1B	1	-0.422	-0.00306	4.96
23	CDKN1B	2	7.07 (active)	52.7	24.3
24	CDKN1B	3	-0.877	-3.2	2.99
25	ZNF22	1	0.228	4.57	5.05
26	ZNF22	2	0.675	7.72	9.42
27	ZNF22	3	1.19	11.4	8.1
28	LIX1	1	-0.06	2.54	3.57
29	LIX1	2	-0.25	1.21	4.04
30	LIX1	3	-0.418	0.0248	2.97
31	WDR26	1	0.385	5.68	6.8
32	WDR26	2	-0.856	-3.05	2.97
33	WDR26	3	0.366	5.54	3.89
34	TVP23B	1	1.06	10.5	7.85
35	TVP23B	2	-0.673	-1.77	3.88
36	TVP23B	3	0.0256	3.15	4.25
37	UVRAG	1	0.86	9.01	9.13
38	UVRAG	2	-1.12	-4.93	1.94
39	UVRAG	3	0.125	3.85	4.71
40	MARCHF5	1	0.204	4.4	7.95
41	MARCHF5	2	-0.629	-1.46	3.7
42	MARCHF5	3	-0.376	0.32	3.92
43	PEA15-AS1	1	0.041	3.26	5.37
44	PEA15-AS1	2	-0.0684	2.49	4.06
45	PEA15-AS1	3	0.858	9	6.46
46	NTRK3	1	-0.237	1.3	6.04
47	NTRK3	2	0.968	9.78	8.7
48	NTRK3	3	-1.11	-4.84	2.32

Records listed so far whose target name begins with N or n:
gene symbol	reagent	G2 robust z-score	G2 cells, % of GMNN control	raw share of cells in G2 (%)
NTRK3	1	-0.237	1.3	6.04
NTRK3	2	0.968	9.78	8.7
NTRK3	3	-1.11	-4.84	2.32
